Values from PubChem BioAssay AID1259405 (NCATS, 2018).
The deposit covers about 50,000 reagents; below is a part drawn at random. About 4,000 of them (8%) count as active. 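Mouse siRNA library applied to hamster cells; one well for each siRNA.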 Reagents against one gene are numbered here.

Purpose: 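Knock-downs that lift recombinant protein yield in hamster ovary cells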 (primary screen)
System: Chinese hamster CHO-K1 ovary cells with stable secreted eGFP expression
Knock-down reagent: single siRNA against mouse genes, 0.8 pmol siRNA per well (2 µl of 400 nM stock)
Duration: 3 days
Read-out: 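Percent of the per-plate non-targeting control median for intracellular GFP per well by laser scanning cytometry and for cell viability by ATP luminescence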
Reading the numbers: GFP, % of control: higher = more GFP per well, higher productivity; viability (ATP), % of control: higher = more viable cells (more ATP)
Call rule: 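Called active when intracellular GFP, relative to negative control, is at or above 120%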

no.	gene knocked down	siRNA no.	GFP, % of control	viability (ATP), % of control	Call
1	Nfkbib	1	49.8	61.2	inactive
2	Nfkbib	2	165	100	active
3	Nfkbib	3	90.2	81.7	inactive
4	Tgfbrap1	1	217	31.9	active
5	Tgfbrap1	2	80.3	70.5	inactive
6	Tgfbrap1	3	104	131	inactive
7	Bnip3l (BCL2/adenovirus E1B interacting protein 3-like)	1	57.6	60.3	inactive
8	Bnip3l (BCL2/adenovirus E1B interacting protein 3-like)	2	81.8	69.9	inactive
9	Bnip3l (BCL2/adenovirus E1B interacting protein 3-like)	3	168	143	active
10	Bnip3l (BCL2/adenovirus E1B interacting protein 3-like)	4	102	78.3	inactive
11	Bnip3l (BCL2/adenovirus E1B interacting protein 3-like)	5	97.5	84.1	inactive
12	Bnip3l (BCL2/adenovirus E1B interacting protein 3-like)	6	125	110	active
13	Pank3 (pantothenate kinase 3)	1	95.5	81	inactive
14	Hecw2	1	66.5	89.7	inactive
15	Hecw2	2	32.6	79.4	inactive
16	Hecw2	3	88.9	68.9	inactive
17	Mfn1 (mitofusin 1)	1	51.5	36	inactive
18	Mfn1 (mitofusin 1)	2	66.8	63.8	inactive
19	Mfn1 (mitofusin 1)	3	51.4	74.7	inactive
20	Zfp759 (zinc finger protein 759)	1	68.9	83.9	inactive
21	Zfp759 (zinc finger protein 759)	2	43.4	64.2	inactive
22	Zfp759 (zinc finger protein 759)	3	106	88	inactive
23	Ltv1 (LTV1 ribosome biogenesis factor)	1	80	59.7	inactive
24	Ltv1 (LTV1 ribosome biogenesis factor)	2	90.4	79.6	inactive
25	Ltv1 (LTV1 ribosome biogenesis factor)	3	76.9	69.7	inactive
26	Nle1 (notchless homolog 1)	1	35.2	60.3	inactive
27	Nle1 (notchless homolog 1)	2	47.7	84	inactive
28	Nle1 (notchless homolog 1)	3	112	143	inactive
29	Gsx1 (GS homeobox 1)	1	54.8	49.1	inactive
30	Gsx1 (GS homeobox 1)	2	91.3	45	inactive
31	Gsx1 (GS homeobox 1)	3	106	98.3	inactive
32	Pcdhgb1 (protocadherin gamma subfamily B, 1)	1	99.9	77.3	inactive
33	Pcdhgb1 (protocadherin gamma subfamily B, 1)	2	63.3	50.1	inactive
34	Pcdhgb1 (protocadherin gamma subfamily B, 1)	3	104	64.8	inactive
35	Or14j7 (olfactory receptor family 14 subfamily J member 7)	1	72.3	65	inactive
36	Or14j7 (olfactory receptor family 14 subfamily J member 7)	2	54.9	68.3	inactive
37	Or14j7 (olfactory receptor family 14 subfamily J member 7)	3	67.4	77.5	inactive
38	Hgh1 (HGH1 cochaparone)	1	104	78.2	inactive
39	Hgh1 (HGH1 cochaparone)	2	97.3	79.9	inactive
40	Hgh1 (HGH1 cochaparone)	3	113	76.7	inactive
41	Mpdz (multiple PDZ domain crumbs cell polarity complex component)	1	61.6	72.1	inactive
42	Mpdz (multiple PDZ domain crumbs cell polarity complex component)	2	93.9	104	inactive
43	Mpdz (multiple PDZ domain crumbs cell polarity complex component)	3	92.2	84.5	inactive
44	Trim54 (tripartite motif-containing 54)	1	43.1	62.2	inactive
45	Trim54 (tripartite motif-containing 54)	2	84.4	80.4	inactive
46	Trim54 (tripartite motif-containing 54)	3	92.4	52.8	inactive
47	Aff3 (AF4/FMR2 family, member 3)	1	47.3	59.8	inactive
48	Aff3 (AF4/FMR2 family, member 3)	2	84.3	85.2	inactive
49	Aff3 (AF4/FMR2 family, member 3)	3	65	90.5	inactive
50	Pla2g12b (phospholipase A2, group XIIB)	1	62.4	59.7	inactive
51	Pla2g12b (phospholipase A2, group XIIB)	2	49	37.5	inactive
52	Ccz1 (CCZ1 vacuolar protein trafficking and biogenesis associated)	1	43.8	40.5	inactive
53	Ccz1 (CCZ1 vacuolar protein trafficking and biogenesis associated)	2	92.2	91.9	inactive
54	Ccz1 (CCZ1 vacuolar protein trafficking and biogenesis associated)	3	95.3	76.7	inactive
55	Chp1 (calcineurin-like EF hand protein 1)	1	85.6	80.6	inactive
56	Chp1 (calcineurin-like EF hand protein 1)	2	76.9	78.9	inactive
57	Chp1 (calcineurin-like EF hand protein 1)	3	86.2	80.6	inactive
58	Ugt2b37 (UDP glucuronosyltransferase 2 family, polypeptide B37)	1	44.6	61.1	inactive
59	Ugt2b37 (UDP glucuronosyltransferase 2 family, polypeptide B37)	2	93.3	84.7	inactive
60	Ugt2b37 (UDP glucuronosyltransferase 2 family, polypeptide B37)	3	35.9	41.5	inactive
61	9530009G21Rik (RIKEN cDNA 9530009G21 gene)	1	59.4	80.9	inactive
62	9530009G21Rik (RIKEN cDNA 9530009G21 gene)	2	70.4	77.8	inactive
63	9530009G21Rik (RIKEN cDNA 9530009G21 gene)	3	70.1	75.9	inactive
64	Or52s6 (olfactory receptor family 52 subfamily S member 6)	1	64	64.4	inactive
65	Or52s6 (olfactory receptor family 52 subfamily S member 6)	2	84.9	65.9	inactive
66	Or52s6 (olfactory receptor family 52 subfamily S member 6)	3	73.2	70.3	inactive
67	Coa7 (cytochrome c oxidase assembly factor 7)	1	68.6	51.1	inactive
68	Coa7 (cytochrome c oxidase assembly factor 7)	2	112	71.4	inactive
69	Coa7 (cytochrome c oxidase assembly factor 7)	3	90.7	120	inactive
70	Etfb (electron transferring flavoprotein, beta polypeptide)	1	111	110	inactive
71	Etfb (electron transferring flavoprotein, beta polypeptide)	2	69.9	73.5	inactive
72	Etfb (electron transferring flavoprotein, beta polypeptide)	3	65.6	57.2	inactive
73	Lect2 (leukocyte cell-derived chemotaxin 2)	1	140	122	active
74	Lect2 (leukocyte cell-derived chemotaxin 2)	2	49.7	55	inactive
75	Sugp1 (SURP and G patch domain containing 1)	1	47	53.1	inactive
76	Sugp1 (SURP and G patch domain containing 1)	2	115	97.7	inactive
77	Sugp1 (SURP and G patch domain containing 1)	3	62.4	53.7	inactive
78	Scarf1 (scavenger receptor class F, member 1)	1	74.3	84	inactive
79	Scarf1 (scavenger receptor class F, member 1)	2	60.3	64.4	inactive
80	Scarf1 (scavenger receptor class F, member 1)	3	75.3	38.4	inactive
81	Fhip1a (FHF complex subunit HOOK interacting protein 1A)	1	73.1	55	inactive
82	Fhip1a (FHF complex subunit HOOK interacting protein 1A)	2	79.7	69.6	inactive
83	Fhip1a (FHF complex subunit HOOK interacting protein 1A)	3	79.3	83	inactive
84	Cyp39a1 (cytochrome P450, family 39, subfamily a, polypeptide 1)	1	55.9	64.4	inactive
85	Cyp39a1 (cytochrome P450, family 39, subfamily a, polypeptide 1)	2	91.9	114	inactive
86	Cyp39a1 (cytochrome P450, family 39, subfamily a, polypeptide 1)	3	79.8	82.6	inactive

Entries listed above marked active, once more:
gene knocked down	siRNA no.	GFP, % of control	viability (ATP), % of control	Call
Nfkbib	2	165	100	active
Tgfbrap1	1	217	31.9	active
Bnip3l (BCL2/adenovirus E1B interacting protein 3-like)	3	168	143	active
Bnip3l (BCL2/adenovirus E1B interacting protein 3-like)	6	125	110	active
Lect2 (leukocyte cell-derived chemotaxin 2)	1	140	122	active
